Data: patent publication US10064926B2, “Peptides and combination of peptides for use in immunotherapy against hepatocellular carcinoma (HCC) and other cancers” (Immatics biotechnologies GmbH, priority 2014, dated 2018)

Assays:
[1] = system: primary HCC tissue samples; experiment: Identification and label-free LC-MS relative quantitation of HLA-presented peptides (presentation profiles/scores), HCC versus normal tissues; parameters: species or system human; key to PeptidePresentation (presentation score): very highly over-presented on tumors compared to a panel of normal tissues (+++); highly over-presented on tumors compared to a panel of normal tissues (++); over-presented on tumors compared to a panel of normal tissues (+); details: HCC tumors compared to a panel of normal tissues
[2] = system: tumor samples of other tumor types; experiment: Over-presentation of peptides on additional tumor types versus normal tissues (LC-MS); parameters: species or system human; details: over-presentation on more than 5% of the measured tumor samples, or presentation on more than 5% with ratio of geometric means tumor vs normal tissues larger than 3

Substance	PeptidePresentation (presentation score) [1]	Other relevant organs/diseases (additional tumor types on which the peptide was found over-presented) [2]	Additional Entities (additional tumor types on which the peptide was found over-presented) [2]
249 (LLLGERVAL; listed as Homo sapiens) [compound 249]	+++	Colon, Rectum	
250 (NLAEVVERV; listed as Homo sapiens) [compound 250]	++	Brain, Colon, Rectum, CLL	NSCLC, SCLC, PrC, BRCA, MCC, OC, Gallbladder Cancer, Bile Duct Cancer
251 (RLFADILNDV; listed as Homo sapiens) [compound 251]	++	Brain, Colon, Rectum	NSCLC, SCLC, PrC, Melanoma, Urinary bladder cancer, Uterine Cancer
252 (RTIEYLEEV; listed as Homo sapiens) [compound 252]	+		Melanoma
255 (SLFGQDVKAV; listed as Homo sapiens) [compound 255]	+++	Kidney, Brain, Colon, Rectum	
256 (SLFQGVEFHYV; listed as Homo sapiens) [compound 256]	+		CRC, CLL, MCC, NHL
257 (SLLEKAGPEL; listed as Homo sapiens) [compound 257]	+++		CLL, Melanoma, OC
258 (SLMGPVVHEV; listed as Homo sapiens) [compound 258]	+	Brain	SCLC, MCC, Melanoma, OC, Urinary bladder cancer, NHL
260 (TLMDMRLSQV; listed as Homo sapiens) [compound 260]	++	Kidney, Brain, Colon, Rectum	SCLC, PrC, CLL, OC, Uterine Cancer, Gallbladder Cancer, Bile Duct Cancer
261 (VLFQEALWHV; listed as Homo sapiens) [compound 261]	++	Colon, Rectum	Urinary bladder cancer
264 (VMQDPEFLQSV; listed as Homo sapiens) [compound 264]	++		SCLC, CRC, PC, CLL, Melanoma, OC, Esophageal Cancer, Urinary bladder cancer, Gallbladder Cancer, Bile Duct Cancer, NHL
265 (WLIEDGKVVTV; listed as Homo sapiens) [compound 265]	++		Melanoma
266 (SLLESNKDLLL; listed as Homo sapiens) [compound 266]	+	Colon, Rectum	SCLC, MCC, Uterine Cancer
267 (ALNENINQV; listed as Homo sapiens) [compound 267]	+		SCLC, Brain Cancer, MCC, Melanoma, Esophageal Cancer, Urinary bladder cancer, Gallbladder Cancer, Bile Duct Cancer
268 (KLYQEVEIASV; listed as Homo sapiens) [compound 268]	+	Brain	CRC, MCC, Melanoma, Urinary bladder cancer
269 (YLMEGSYNKV; listed as Homo sapiens) [compound 269]	+	Brain, Colon, Rectum	NSCLC, SCLC, PrC, BRCA, MCC, Melanoma, OC, Esophageal Cancer, Urinary bladder cancer, Gallbladder Cancer, Bile Duct Cancer
270 (SVLDQKILL; listed as Homo sapiens) [compound 270]	++	Kidney, Brain	Melanoma, Urinary bladder cancer, Uterine Cancer, Gallbladder Cancer, Bile Duct Cancer, NHL

Substance	PeptidePresentation (presentation score) [1]	Other relevant organs/diseases (additional tumor types on which the peptide was found over-presented) [2]	Additional Entities (additional tumor types on which the peptide was found over-presented) [2]
271 (LLLDKLILL; listed as Homo sapiens) [compound 271]	+	Brain, Colon, Rectum	CLL, Melanoma, OC, Urinary bladder cancer, Uterine Cancer
272 (QQLDSKFLEQV; listed as Homo sapiens) [compound 272]	+	Kidney, Brain	MCC, OC, NHL
274 (ALAEALKEV; listed as Homo sapiens) [compound 274]	+	Colon, Rectum	BRCA, MCC, Melanoma, OC, Uterine Cancer, AML
275 (ALIEGAGILL; listed as Homo sapiens) [compound 275]	++	Kidney, Colon, Rectum, Pancreas	SCLC, MCC, Melanoma, OC, Esophageal Cancer, Urinary bladder cancer, Uterine Cancer, NHL
276 (ALLEADVNIKL; listed as Homo sapiens) [compound 276]	+	Pancreas	Gallbladder Cancer, Bile Duct Cancer, OC
277 (ALLEENSTPQL; listed as Homo sapiens) [compound 277]	+	Kidney	SCLC, CLL, Melanoma, OC, Esophageal Cancer, Urinary bladder cancer, NHL
278 (ALTSVVVTL; listed as Homo sapiens) [compound 278]	+	Kidney, Brain	NSCLC, SCLC, GC, Esophageal Cancer, Urinary bladder cancer, Gallbladder Cancer, Bile Duct Cancer, AML, NHL
281 (GLLAGDRLVEV; listed as Homo sapiens) [compound 281]	+	Kidney	NSCLC, SCLC, OC, Urinary bladder cancer, Uterine Cancer, Gallbladder Cancer, Bile Duct Cancer, NHL
282 (GQFPSYLETV; listed as Homo sapiens) [compound 282]	++	Kidney, Brain, Colon, Rectum	NSCLC, CLL, Melanoma, OC, Esophageal Cancer, Urinary bladder cancer, NHL
283 (ILSGIGVSQV; listed as Homo sapiens) [compound 283]	+	Pancreas	NSCLC, PrC, BRCA, Melanoma, OC, Esophageal Cancer, Urinary bladder cancer, Uterine Cancer, Gallbladder Cancer, Bile Duct Cancer, NHL, PC
284 (KLDAFVEGV; listed as Homo sapiens) [compound 284]	+		BRCA, OC
288 (LLDDSLVSI; listed as Homo sapiens) [compound 288]	+	Pancreas	Melanoma, Urinary bladder cancer, AML
289 (LLLEEGGLVQV; listed as Homo sapiens) [compound 289]	++	Kidney, Colon, Rectum, Pancreas	NSCLC, SCLC, PrC, Melanoma, OC, Urinary bladder cancer, NHL
290 (NLIDLDDLYV; listed as Homo sapiens) [compound 290]	++	Brain, Colon, Rectum, Pancreas	SCLC, PrC, MCC, OC, Urinary bladder cancer, Uterine Cancer
292 (RIPAYFVTV; listed as Homo sapiens) [compound 292]	+	Kidney	GC, BRCA, Melanoma, NHL
293 (FLASESLIKQI; listed as Homo sapiens) [compound 293]	++	Brain, Colon, Rectum	NSCLC, PrC, MCC, Melanoma, OC, Esophageal Cancer, Urinary bladder cancer, Uterine Cancer, Gallbladder Cancer, Bile Duct Cancer, NHL, PC
295 (SLFSSPPEI; listed as Homo sapiens) [compound 295]	++	Kidney, Brain	NSCLC, SCLC, CRC, PrC, BRCA, Melanoma, OC, Urinary bladder cancer, Uterine Cancer
